In the supplement of paper PMC10849652:
This is one part of the list.

By UniProt entry, the sequences of proteins in these tests, tags left out. Where a name states a change or a piece, a line headed by the entry shows the natural chain unless it says otherwise.
UniProt Q8NHU6: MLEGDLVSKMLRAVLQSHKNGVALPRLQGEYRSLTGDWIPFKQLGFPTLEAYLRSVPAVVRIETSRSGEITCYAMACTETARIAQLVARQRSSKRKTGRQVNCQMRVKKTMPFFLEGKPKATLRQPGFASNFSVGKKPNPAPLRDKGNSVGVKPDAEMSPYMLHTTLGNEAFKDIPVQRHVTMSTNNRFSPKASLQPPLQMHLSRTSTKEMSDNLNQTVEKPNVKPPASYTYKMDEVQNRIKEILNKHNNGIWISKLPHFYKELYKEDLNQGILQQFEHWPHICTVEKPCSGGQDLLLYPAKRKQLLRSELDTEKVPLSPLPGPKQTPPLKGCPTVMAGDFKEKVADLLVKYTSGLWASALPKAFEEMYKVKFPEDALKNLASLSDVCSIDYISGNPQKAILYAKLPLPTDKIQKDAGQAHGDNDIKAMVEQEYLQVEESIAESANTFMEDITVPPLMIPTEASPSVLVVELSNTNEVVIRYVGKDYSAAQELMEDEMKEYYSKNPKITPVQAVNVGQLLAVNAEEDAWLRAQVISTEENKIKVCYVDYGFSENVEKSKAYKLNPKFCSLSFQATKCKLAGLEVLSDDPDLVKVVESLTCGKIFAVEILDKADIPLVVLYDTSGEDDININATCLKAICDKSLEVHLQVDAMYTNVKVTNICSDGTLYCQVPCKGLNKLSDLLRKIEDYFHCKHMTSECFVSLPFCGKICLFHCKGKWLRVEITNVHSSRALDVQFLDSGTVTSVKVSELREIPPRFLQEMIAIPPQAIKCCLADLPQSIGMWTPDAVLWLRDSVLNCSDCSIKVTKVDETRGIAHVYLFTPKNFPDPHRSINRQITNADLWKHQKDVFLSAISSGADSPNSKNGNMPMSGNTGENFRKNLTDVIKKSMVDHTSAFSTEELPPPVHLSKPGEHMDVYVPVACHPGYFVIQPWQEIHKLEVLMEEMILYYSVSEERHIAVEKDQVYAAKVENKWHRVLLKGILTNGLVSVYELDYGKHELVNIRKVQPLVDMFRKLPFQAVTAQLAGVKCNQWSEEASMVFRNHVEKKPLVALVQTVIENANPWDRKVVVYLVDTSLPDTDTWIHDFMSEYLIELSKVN
UniProt Q8TBR7: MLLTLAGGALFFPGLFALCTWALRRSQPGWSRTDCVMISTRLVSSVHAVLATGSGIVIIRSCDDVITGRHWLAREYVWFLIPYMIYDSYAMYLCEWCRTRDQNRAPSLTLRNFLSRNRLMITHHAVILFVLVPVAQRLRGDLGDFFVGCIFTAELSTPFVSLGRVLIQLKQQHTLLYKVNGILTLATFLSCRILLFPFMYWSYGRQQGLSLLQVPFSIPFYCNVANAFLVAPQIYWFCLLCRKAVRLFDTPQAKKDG
UniProt Q8N9U0: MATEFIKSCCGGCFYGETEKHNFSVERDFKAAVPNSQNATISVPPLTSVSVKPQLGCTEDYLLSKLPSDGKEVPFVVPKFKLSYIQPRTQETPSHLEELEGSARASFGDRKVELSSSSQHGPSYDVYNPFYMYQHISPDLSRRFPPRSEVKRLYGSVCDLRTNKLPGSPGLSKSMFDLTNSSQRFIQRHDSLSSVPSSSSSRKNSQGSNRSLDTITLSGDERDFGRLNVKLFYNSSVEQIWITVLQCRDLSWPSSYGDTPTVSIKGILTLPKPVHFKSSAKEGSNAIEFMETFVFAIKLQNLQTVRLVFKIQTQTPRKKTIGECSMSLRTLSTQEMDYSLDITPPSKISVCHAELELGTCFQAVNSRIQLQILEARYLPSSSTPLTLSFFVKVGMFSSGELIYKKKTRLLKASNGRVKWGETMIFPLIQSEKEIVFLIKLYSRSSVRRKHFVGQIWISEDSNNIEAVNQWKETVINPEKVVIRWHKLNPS
UniProt O43435: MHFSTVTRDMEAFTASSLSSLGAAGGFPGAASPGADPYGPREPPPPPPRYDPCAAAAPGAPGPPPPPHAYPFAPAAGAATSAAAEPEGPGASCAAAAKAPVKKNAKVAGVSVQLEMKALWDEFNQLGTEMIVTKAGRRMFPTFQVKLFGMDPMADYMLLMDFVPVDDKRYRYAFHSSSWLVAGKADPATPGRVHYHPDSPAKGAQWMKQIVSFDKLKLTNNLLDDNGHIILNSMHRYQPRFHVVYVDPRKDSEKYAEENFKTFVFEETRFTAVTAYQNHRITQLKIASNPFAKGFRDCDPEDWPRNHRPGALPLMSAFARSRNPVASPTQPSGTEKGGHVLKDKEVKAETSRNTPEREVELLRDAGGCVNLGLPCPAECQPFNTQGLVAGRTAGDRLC
UniProt P15923: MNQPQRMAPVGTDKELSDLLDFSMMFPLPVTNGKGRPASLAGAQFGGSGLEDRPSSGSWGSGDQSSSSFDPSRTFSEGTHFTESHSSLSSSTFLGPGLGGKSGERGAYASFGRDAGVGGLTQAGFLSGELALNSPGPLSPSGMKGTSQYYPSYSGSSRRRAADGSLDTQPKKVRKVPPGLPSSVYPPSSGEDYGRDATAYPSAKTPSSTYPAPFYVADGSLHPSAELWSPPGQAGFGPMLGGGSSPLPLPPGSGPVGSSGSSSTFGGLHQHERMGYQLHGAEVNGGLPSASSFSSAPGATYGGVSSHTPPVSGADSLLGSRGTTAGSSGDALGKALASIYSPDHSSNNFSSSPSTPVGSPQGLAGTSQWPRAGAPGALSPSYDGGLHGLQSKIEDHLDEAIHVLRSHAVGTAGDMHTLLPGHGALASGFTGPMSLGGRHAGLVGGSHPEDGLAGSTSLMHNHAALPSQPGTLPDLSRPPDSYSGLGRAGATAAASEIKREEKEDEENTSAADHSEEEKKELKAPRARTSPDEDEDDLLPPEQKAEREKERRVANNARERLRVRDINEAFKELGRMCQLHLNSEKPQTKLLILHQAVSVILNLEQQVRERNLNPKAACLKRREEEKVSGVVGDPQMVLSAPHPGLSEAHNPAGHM
UniProt Q96CG3: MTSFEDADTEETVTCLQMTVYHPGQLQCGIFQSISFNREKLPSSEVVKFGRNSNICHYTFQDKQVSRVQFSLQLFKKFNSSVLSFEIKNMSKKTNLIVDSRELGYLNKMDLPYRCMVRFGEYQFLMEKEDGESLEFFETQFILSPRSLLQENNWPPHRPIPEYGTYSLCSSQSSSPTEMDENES
UniProt Q15170: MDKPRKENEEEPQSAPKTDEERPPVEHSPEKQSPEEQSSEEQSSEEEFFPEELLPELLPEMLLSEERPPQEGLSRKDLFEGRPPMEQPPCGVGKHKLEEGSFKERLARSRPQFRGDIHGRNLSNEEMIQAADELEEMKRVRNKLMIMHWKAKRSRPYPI
UniProt Q3MII6: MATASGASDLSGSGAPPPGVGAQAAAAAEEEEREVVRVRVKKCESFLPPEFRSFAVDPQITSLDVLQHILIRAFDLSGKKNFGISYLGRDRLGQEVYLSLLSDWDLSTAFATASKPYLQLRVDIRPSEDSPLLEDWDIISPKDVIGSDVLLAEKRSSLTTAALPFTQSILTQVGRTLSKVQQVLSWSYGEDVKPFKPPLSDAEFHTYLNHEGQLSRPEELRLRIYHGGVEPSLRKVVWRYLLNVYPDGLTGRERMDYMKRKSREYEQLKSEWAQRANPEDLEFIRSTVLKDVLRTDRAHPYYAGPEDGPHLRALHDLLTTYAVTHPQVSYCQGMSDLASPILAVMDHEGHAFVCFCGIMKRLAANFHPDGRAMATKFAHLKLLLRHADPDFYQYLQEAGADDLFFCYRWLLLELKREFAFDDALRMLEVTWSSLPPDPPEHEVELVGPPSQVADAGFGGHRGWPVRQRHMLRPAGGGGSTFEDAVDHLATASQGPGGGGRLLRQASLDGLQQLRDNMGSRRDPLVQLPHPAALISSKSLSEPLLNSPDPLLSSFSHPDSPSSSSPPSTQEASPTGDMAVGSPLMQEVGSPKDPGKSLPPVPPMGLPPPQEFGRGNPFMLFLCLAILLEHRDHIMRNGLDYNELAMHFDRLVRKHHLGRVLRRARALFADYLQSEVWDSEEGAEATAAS
UniProt B5MCY1: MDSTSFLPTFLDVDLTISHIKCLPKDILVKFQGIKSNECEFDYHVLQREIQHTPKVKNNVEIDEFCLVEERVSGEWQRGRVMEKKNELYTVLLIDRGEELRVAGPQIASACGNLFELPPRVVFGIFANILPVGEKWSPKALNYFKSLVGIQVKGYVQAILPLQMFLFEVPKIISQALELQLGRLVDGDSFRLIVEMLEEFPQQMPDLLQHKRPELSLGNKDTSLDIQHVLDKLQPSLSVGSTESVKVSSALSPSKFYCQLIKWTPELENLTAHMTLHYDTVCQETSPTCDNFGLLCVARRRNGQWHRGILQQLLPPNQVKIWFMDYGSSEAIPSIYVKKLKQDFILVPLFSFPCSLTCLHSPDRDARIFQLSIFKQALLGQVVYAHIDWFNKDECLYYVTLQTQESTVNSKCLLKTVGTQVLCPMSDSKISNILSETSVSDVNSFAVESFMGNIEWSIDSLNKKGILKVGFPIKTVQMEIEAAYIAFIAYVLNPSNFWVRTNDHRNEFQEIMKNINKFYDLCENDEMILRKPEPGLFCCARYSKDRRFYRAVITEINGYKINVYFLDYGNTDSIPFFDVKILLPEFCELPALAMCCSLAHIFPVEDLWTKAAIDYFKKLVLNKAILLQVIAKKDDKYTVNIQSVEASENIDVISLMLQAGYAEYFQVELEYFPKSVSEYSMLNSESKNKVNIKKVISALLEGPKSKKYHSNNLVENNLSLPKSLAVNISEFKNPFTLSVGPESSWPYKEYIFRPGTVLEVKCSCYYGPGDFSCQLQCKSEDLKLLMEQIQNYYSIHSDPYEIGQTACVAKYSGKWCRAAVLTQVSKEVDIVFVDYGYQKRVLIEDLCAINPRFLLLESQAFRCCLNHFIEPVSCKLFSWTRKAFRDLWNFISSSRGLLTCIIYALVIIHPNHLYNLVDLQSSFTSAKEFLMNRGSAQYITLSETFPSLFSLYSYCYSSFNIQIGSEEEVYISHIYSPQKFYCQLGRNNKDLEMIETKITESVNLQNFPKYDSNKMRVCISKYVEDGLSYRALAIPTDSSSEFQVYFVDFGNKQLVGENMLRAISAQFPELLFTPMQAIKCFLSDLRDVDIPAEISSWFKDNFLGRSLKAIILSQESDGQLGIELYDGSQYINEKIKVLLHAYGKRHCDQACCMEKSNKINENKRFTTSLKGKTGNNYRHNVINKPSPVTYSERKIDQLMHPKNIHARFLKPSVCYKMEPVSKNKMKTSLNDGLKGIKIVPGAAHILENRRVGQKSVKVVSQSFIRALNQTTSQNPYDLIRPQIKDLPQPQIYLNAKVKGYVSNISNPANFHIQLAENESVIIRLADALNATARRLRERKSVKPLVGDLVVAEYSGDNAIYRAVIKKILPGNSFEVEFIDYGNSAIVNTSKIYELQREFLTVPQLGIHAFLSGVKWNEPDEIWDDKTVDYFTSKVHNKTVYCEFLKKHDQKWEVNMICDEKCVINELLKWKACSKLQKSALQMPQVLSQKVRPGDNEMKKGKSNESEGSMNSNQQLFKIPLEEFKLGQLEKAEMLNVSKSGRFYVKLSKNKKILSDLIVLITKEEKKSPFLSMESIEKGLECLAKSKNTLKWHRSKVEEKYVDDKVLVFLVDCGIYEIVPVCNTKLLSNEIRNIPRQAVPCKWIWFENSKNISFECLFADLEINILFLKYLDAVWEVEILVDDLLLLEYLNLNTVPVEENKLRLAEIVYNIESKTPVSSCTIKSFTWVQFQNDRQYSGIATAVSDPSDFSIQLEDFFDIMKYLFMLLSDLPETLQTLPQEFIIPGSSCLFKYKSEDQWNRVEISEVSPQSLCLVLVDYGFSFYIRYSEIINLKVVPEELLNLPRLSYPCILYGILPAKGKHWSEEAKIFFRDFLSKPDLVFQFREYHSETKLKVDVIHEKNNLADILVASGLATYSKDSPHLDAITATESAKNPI
UniProt Q9NUW8, whole entry, looked up: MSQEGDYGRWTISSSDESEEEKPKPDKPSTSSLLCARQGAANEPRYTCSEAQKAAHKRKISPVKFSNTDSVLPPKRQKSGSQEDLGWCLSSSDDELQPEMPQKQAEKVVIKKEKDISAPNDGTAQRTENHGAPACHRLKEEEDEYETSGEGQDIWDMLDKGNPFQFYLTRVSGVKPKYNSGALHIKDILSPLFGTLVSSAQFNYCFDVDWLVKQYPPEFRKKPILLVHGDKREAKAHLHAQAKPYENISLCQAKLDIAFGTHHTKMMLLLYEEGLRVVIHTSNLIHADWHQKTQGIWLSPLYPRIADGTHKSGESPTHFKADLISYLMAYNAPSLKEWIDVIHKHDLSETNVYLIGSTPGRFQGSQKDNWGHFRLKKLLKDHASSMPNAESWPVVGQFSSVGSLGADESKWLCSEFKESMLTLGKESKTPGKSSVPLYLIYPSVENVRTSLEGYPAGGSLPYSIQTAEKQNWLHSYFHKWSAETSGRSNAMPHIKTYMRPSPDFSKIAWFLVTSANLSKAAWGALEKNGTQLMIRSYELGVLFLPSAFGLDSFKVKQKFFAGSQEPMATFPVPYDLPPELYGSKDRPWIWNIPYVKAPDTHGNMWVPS
UniProt Q8IYN2: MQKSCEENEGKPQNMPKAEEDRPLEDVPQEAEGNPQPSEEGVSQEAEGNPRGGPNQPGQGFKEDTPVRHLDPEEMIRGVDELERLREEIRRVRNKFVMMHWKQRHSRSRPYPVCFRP

What was measured:
Assay in all cases: log2 fold change, soluble protein after heating vs DMSO (PISA); higher = thermal stabilisation; K562 cells, 10 uM, 30 min; active = over 0.2 and 3.5 SD of the protein, either way, in both replicates (recomputed)
bafetinib = compound: Cc1ccc(NC(=O)c2ccc(CN3CC[C@H](N(C)C)C3)c(C(F)(F)F)c2)cc1Nc1nccc(-c2cncnc2)n1 [bafetinib]
Outline: (§1)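 Aliquots of K562 cells (2×10^6 cells/mL) treated with 10 μM compound for 30 min were heated for 3 min over 48°C-58°C. After pooling and extraction in PBS with 0.5% NP-40 at 4°C, soluble protein from a 21,000xg, 90 min spin was quantified by TMTpro 16plex LC-MS/MS with channel sums equalised. Thermal stability is expressed against control samples, from duplicates, as a log2 fold change.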

tipifarnib = compound: Cn1cncc1[C@@](N)(c1ccc(Cl)cc1)c1ccc2c(c1)c(-c1cccc(Cl)c1)cc(=O)n2C [tipifarnib]
Outline: as §1

[1] = compound: Cc1cccc(CC(=O)N2CCc3c2ccc(-c2cn(C)c4ncnc(N)c24)c3F)n1
Outline: as §1

nilotinib = compound: Cc1cn(-c2cc(NC(=O)c3ccc(C)c(Nc4nccc(-c5cccnc5)n4)c3)cc(C(F)(F)F)c2)cn1 [nilotinib]
Outline: as §1

[2] = compound: Cc1nc(Nc2n[nH]c3c2CN(C(=O)N[C@H](CN(C)C)c2ccccc2)C3(C)C)c2sccc2n1
Outline: as §1

dasatinib = compound: Cc1nc(Nc2ncc(C(=O)Nc3c(C)cccc3Cl)s2)cc(N2CCN(CCO)CC2)n1 [dasatinib]
Outline: as §1

[3] = compound: Cc1ncc(-c2ccnc(Nc3ccc(S(C)(=O)=O)cc3)n2)n1C(C)C
Outline: as §1

[4] = compound: Cn1cc(-c2ccc3c(c2)CCN3C(=O)Cc2cccc(C(F)(F)F)c2)c2c(N)ncnc21
Outline: as §1

mubritinib = compound: FC(F)(F)c1ccc(/C=C/c2nc(COc3ccc(CCCCn4ccnn4)cc3)co2)cc1 [mubritinib]
Outline: as §1

[5] = compound: Cn1cc(-c2ccc3nnc(C(F)(F)c4ccc5ncccc5c4)n3n2)cn1
Outline: as §1

Measured: log2 fold change

TBC1D7 (UniProt Q9P0N9)
inactive: bafetinib 0.048 | tipifarnib 0.065

TGDS (UniProt O95455)
inactive: [1] -0.166 | nilotinib 0.052 | [2] -0.034 | dasatinib -0.046 | [3] -0.021 | [4] 0.206 | mubritinib 0.071

TDRD7 (UniProt Q8NHU6)
inactive: [1] 0.081 | dasatinib 0.16 | [4] 0.019 | [5] -0.008 | mubritinib 0.34

THAP12 (UniProt O43422)
inactive: [1] 0.215 | nilotinib -0.131 | [2] -0.038 | [3] 0.125 | [4] -0.19 | [5] -0.12

TLCD3A (UniProt Q8TBR7)
inactive: [1] -0.038 | dasatinib 0.184 | tipifarnib 0.086

TC2N (UniProt Q8N9U0)
inactive: nilotinib 0.052 | dasatinib 0.068 | [3] -0.024 | [5] -0.153 | mubritinib 0.176
active: [2] -0.71

TCOF1 isoform 6 (UniProt Q13428)
inactive: bafetinib 0.137 | nilotinib -0.102 | [2] 0.14 | [3] -0.033 | [4] 0.07 | [5] -0.061 | mubritinib -0.091

TBX1 isoform 3 (UniProt O43435)
inactive: nilotinib -0.208 | [2] -0.18 | [3] -0.118 | tipifarnib -0.128

TCF3 isoform 2 (UniProt P15923)
inactive: [1] 0.067 | [4] 0.103 | [5] 0.095

THAP9 (UniProt Q9H5L6)
inactive: bafetinib 0.191 | nilotinib 0.03 | [2] -0.009 | dasatinib -0.082 | [3] -0.04 | [4] 0.119 | [5] 0.072 | mubritinib 0.17

TIFA (UniProt Q96CG3)
inactive: [1] 0.009 | [4] 0.243 | tipifarnib 0.015

TCEAL1 isoform 2 (UniProt Q15170)
inactive: [1] -0.049 | [4] -0.095 | [5] 0.039 | tipifarnib 0.147

TCAF2 (UniProt A6NFQ2)
inactive: nilotinib -0.355 | [2] -0.205 | [3] 0.076 | [4] -0.318 | [5] -0.068

TBC1D25 (UniProt Q3MII6)
inactive: bafetinib 0.188 | [4] -0.448

TBC1D2B (UniProt Q9UPU7)
inactive: bafetinib -0.012 | nilotinib -0.007 | [2] 0.091 | dasatinib 0.136 | [3] -0.067 | mubritinib 0.052

TBC1D2 (UniProt Q9BYX2)
inactive: [1] 0.213 | mubritinib -0.085

Retrieved one by one from the list above (2):
TCF3 isoform 2 (UniProt P15923)
inactive: [1] 0.067 | [4] 0.103 | [5] 0.095

TBC1D7 (UniProt Q9P0N9)
inactive: bafetinib 0.048 | tipifarnib 0.065

Continued.

THTPA (UniProt Q9BU02)
inactive: bafetinib -0.03 | dasatinib -0.076 | [4] 0.018 | [5] -0.021 | tipifarnib -0.023 | mubritinib 0.104

TDRD3 isoform 3 (UniProt Q9H7E2)
inactive: bafetinib 0.023 | tipifarnib 0.222 | mubritinib -0.041

TDRD15 (UniProt B5MCY1)
inactive: [1] -0.25 | dasatinib 0.213 | [4] -0.09 | [5] 0.125 | mubritinib 0.252

TBC1D9 (UniProt Q6ZT07)
inactive: bafetinib -0.271 | dasatinib -0.235

TBC1D14 (UniProt Q9P2M4)
inactive: [1] -0.111 | [5] 0.063 | tipifarnib -0.058 | mubritinib 0.162

TFE3 (UniProt P19532)
inactive: bafetinib -0.249 | [5] 0.22

TESMIN (UniProt Q9Y4I5)
inactive: nilotinib -0.165 | [2] 0.015 | [3] 0.081

TFIP11 (UniProt Q9UBB9)
inactive: [4] -0.21

TDP1 (UniProt Q9NUW8)
inactive: [4] -0.1

TCEAL4 isoform 2 (UniProt Q96EI5)
inactive: [1] -0.044 | dasatinib -0.222 | [5] 0.066 | tipifarnib -0.017

TCOF1 isoform 3 (UniProt Q13428)
inactive: [1] -0.005 | [5] -0.419

TCEAL8 (UniProt Q8IYN2)
inactive: [1] 0.043 | nilotinib 0.012 | [2] 0.026 | [3] -0.086 | mubritinib -0.08

THEMIS2 (UniProt Q5TEJ8)
inactive: [1] -0.124 | nilotinib 0.144 | [2] 0.21 | dasatinib 0.032 | [3] -0.138 | [5] 0.047 | tipifarnib -0.014

TET2 (UniProt Q6N021)
inactive: nilotinib 0.071 | [2] -0.103 | [3] -0.027 | mubritinib -0.028

TBCK (UniProt Q8TEA7)
inactive: [1] -0.032 | nilotinib 0.005 | [2] 0.181 | dasatinib -0.097 | [3] -0.126 | tipifarnib 0.141

TLE3 (UniProt Q04726)
inactive: bafetinib -0.165 | [4] 0.094

TCTN3 (UniProt Q6NUS6)
inactive: bafetinib -0.022 | nilotinib 0.015 | [2] -0.045 | [3] -0.178 | tipifarnib 0.105

TFDP2 (UniProt Q14188)
inactive: bafetinib -0.049 | [4] -0.214 | mubritinib 0.06

TEDC2 (UniProt Q7L2K0)
inactive: dasatinib -0.122

TCF4 isoform 3 (UniProt P15884)
inactive: [1] -0.121 | dasatinib -0.008 | [4] -0.023 | tipifarnib -0.029

TGM2 (UniProt A2A299)
inactive: dasatinib 0.13 | [4] -0.359 | [5] 0.059 | tipifarnib 0.137 | mubritinib -0.233

TENM4 (UniProt Q6N022)
inactive: [1] 0.024 | dasatinib 0.027 | [4] 0.049 | tipifarnib 0.005
